Assay results published in article doi:10.1101/2022.07.12.499798.
These are yes or no findings as the source states them, for the method shown. For part of these data: Binding seen in cells or lysates may run through a third protein. Some entries that bind do so weakly or less than the wild type.

Protein sequences, listed by entry. Tags and fused reporters are not part of them.
UniProt Q336M2: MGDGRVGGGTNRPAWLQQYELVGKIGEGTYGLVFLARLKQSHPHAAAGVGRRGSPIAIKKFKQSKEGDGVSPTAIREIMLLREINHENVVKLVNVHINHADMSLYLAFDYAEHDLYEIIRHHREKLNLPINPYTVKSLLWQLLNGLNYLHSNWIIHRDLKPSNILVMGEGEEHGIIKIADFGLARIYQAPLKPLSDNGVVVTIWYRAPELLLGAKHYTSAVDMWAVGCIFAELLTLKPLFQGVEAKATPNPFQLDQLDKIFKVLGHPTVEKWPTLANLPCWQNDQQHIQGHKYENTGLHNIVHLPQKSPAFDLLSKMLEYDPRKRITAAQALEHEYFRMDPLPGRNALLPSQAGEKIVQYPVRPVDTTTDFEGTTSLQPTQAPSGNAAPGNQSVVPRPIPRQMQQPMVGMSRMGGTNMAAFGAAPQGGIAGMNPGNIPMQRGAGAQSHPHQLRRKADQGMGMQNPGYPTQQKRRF
UniProt P29618: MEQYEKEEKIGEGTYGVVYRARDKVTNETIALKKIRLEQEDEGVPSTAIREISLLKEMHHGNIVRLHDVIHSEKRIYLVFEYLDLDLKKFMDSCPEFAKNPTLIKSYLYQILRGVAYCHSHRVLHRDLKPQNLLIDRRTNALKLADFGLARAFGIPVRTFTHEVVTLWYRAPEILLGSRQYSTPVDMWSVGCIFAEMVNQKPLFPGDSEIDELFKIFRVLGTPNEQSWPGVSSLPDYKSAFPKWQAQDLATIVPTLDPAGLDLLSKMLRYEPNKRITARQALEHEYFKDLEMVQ
UniProt P29619: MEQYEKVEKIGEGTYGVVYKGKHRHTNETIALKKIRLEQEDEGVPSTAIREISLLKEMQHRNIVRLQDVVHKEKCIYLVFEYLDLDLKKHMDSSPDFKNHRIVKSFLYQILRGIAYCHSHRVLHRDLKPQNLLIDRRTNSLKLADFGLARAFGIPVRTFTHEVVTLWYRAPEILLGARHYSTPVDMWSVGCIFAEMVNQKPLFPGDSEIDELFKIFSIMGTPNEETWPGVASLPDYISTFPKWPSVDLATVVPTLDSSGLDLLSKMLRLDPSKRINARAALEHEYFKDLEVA
UniProt Q8L4P8: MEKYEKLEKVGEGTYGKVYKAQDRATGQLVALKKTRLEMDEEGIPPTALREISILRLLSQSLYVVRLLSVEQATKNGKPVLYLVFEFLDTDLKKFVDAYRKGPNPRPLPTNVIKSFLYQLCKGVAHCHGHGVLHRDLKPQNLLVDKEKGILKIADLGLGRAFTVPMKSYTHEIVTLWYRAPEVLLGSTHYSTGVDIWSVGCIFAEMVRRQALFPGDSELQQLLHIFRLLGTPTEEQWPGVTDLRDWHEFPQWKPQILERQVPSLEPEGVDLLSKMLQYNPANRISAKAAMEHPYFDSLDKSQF
UniProt Q6Z6G5: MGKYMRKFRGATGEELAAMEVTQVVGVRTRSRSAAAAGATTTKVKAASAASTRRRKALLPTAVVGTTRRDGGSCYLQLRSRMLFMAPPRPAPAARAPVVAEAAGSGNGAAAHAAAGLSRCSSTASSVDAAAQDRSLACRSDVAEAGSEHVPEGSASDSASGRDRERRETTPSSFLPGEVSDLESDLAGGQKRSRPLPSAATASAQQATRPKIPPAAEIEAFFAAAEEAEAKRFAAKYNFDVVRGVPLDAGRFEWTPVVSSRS

T1: KRP5 (Kip-Related Protein 5), yeast construct (rice (Oryza sativa)) (UniProt Q283L0)
T1 sequence: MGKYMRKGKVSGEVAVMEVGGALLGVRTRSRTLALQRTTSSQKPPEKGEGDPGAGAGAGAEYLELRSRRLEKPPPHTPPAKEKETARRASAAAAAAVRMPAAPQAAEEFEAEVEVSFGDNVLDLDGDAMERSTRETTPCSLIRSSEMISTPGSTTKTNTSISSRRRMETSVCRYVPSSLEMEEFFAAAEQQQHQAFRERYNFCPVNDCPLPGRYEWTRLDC

T2: KRP4 (Kip-Related Protein 4), yeast construct (rice (Oryza sativa)) (UniProt Q7XDH8)
T2 sequence: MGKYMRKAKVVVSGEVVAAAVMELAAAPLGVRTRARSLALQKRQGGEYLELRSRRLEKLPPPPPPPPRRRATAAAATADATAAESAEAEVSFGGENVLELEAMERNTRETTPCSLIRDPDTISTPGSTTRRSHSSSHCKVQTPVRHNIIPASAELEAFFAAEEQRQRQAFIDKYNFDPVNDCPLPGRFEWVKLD

T3: CDKB2;1, yeast construct (rice (Oryza sativa)) (UniProt Q0J4I1)
T3 sequence: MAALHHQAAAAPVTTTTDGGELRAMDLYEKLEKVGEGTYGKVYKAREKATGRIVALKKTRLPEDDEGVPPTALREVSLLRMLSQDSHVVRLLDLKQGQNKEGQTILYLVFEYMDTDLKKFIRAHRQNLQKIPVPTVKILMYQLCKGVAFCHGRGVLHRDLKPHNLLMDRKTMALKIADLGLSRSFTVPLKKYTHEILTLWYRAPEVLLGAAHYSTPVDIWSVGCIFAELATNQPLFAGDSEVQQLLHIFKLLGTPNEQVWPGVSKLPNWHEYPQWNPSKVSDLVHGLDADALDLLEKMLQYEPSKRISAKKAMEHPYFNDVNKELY

T4: KRP5-nEYFP (rice (Oryza sativa)) (UniProt Q283L0)
T4 sequence: T1 sequence

B1: CDKB2;1, yeast construct (enzyme, UniProt Q0J4I1 1-326)
chain: T3 sequence
B2: KRP5 (Kip-Related Protein 5), yeast construct (protein, UniProt Q283L0 1-221)
chain: T1 sequence
B3: KRP4 (Kip-Related Protein 4), yeast construct (protein, UniProt Q7XDH8 1-194)
chain: T2 sequence
B4: CYCD5;1 (rice Cyclin D5;1), yeast two-hybrid prey (protein, UniProt Q0DQA9 1-367)
chain: MEAEDEYSAGCSFSLMCQEDSTDLDDDGGGGGCFAGDGRADLLLVYNAAAAADDEDEEEVEEYMDHLVSKESSFCSSSSSTSSSSCCFSDAGGESAAAAAPMDWFALARRATVKWILETRGCFGFCHRTAYLAIAYFDRFCLRRCIDRSVMPWAARLLAVACVSLAAKMEEYRAPALSEFRAGVGDDGYEFSCVCIRRMELLVLSTLDWRMAAVTPFDYLPCLSSRLRRHVGGGGGAGASAALIFSAAEAASVLDHRPSTVAAAAVLAATHGALTREALESKMSGLSPSFLLDKEDVFACYSAMLSQPTSPASKSTTTTTGKRSSSSSCSESTDAASSYDATAASFPAAASCGSKRMRLELPGGILR
B5: CYCD6;1, yeast two-hybrid prey (protein, UniProt Q69S43 1-320)
chain: MDMATGAKEVVVVEAYEYEFDLENPFTSPADEPIASLLDAEGHHSPSVSAAASAARREAAGFISKVRYDGELDVHPRVAYLALNYVDRYLSKRQLACERNPWAPRLLAISCLTLAAKMQRAAAISAADIQRGEEFMFDEAKIQRMEQMVLNALEWRTRSVTPLAFLGFFLSACFPQPRHPALLDAIKARAVDLLLRVQPEVKMAEFSPSVAAAAALLAAAGEVAGAHLLGFEAGVAACPFVNSEKLRECGEVMAAACGVGPSWAAAATSAETPVTVLGHHRSASSESERTTTVGSAANSADAKRRCMGPPRQWGVGGPDE
B6: CYCA2;1, yeast two-hybrid prey (protein, UniProt Q2QQ96 1-490)
chain: MAGRKENPVLTACQAPSGRITRAQAAANRGRFGFAPSVSLPARTERKQTAKGKTKRGALDEITSASTATSAPQPKRRTVLKDVTNIGCANSSKNCTTTSKLQQKSKPTQRVKQIPSKKQCAKKVPKLPPPAVAGTSFVIDSKSSEETQKVELLAKAEEPTNLFENEGLLSLQNIERNRDSNCHEAFFEARNAMDKHELADSKPGDSSGLGFIDIDNDNGNPQMCASYASEIYTNLMASELIRRPRSNYMEALQRDITKGMRGILIDWLVEVSEEYKLVPDTLYLTINLIDRFLSQHYIERQKLQLLGITSMLIASKYEEICAPRVEEFCFITDNTYTKAEVLKMEGLVLNDMGFHLSVPTTKTFLRRFLRAAQASRNVPSITLGYLANYLAELTLIDYSFLKFLPSVVAASAVFLARWTLDQSDIPWNHTLEHYTSYKSSDIQICVCALRELQHNTSNCPLNAIREKYRQQKFECVANLTSPELGQSLFS
B7: KRP4-cEYFP (protein, UniProt Q7XDH8 1-194)
chain: T2 sequence
B8: CYCA2;1, yeast two-hybrid prey, Q2QQ96 1-490 (protein)
chain: B6 chain

Key:
[1] = biological target: T1, KRP5 (Kip-Related Protein 5), yeast construct (rice (Oryza sativa)); assay: co-IP
[2] = biological target: T2, KRP4 (Kip-Related Protein 4), yeast construct (rice (Oryza sativa)); assay: co-IP
[3] = biological target: T1, KRP5 (Kip-Related Protein 5), yeast construct (rice (Oryza sativa)); assay: two-hybrid
[4] = biological target: KRP4m, C-terminally truncated KRP4 (rice (Oryza sativa)) (UniProt Q7XDH8); assay: two-hybrid
[5] = biological target: T2, KRP4 (Kip-Related Protein 4), yeast construct (rice (Oryza sativa)); assay: two-hybrid
[6] = biological target: KRP5m, C-terminally truncated KRP5 (rice (Oryza sativa)) (UniProt Q283L0); assay: two-hybrid
[7] = biological target: CDKE1, yeast two-hybrid construct (rice (Oryza sativa)) (UniProt Q336M2); assay: two-hybrid
[8] = biological target: CDKA1;1, yeast two-hybrid construct (rice (Oryza sativa)) (UniProt P29618); assay: two-hybrid
[9] = biological target: T3, CDKB2;1, yeast construct (rice (Oryza sativa)); assay: two-hybrid
[10] = biological target: CDKA2;1, yeast two-hybrid construct (rice (Oryza sativa)) (UniProt P29619); assay: two-hybrid
[11] = biological target: CDKB1;1, yeast construct (rice (Oryza sativa)) (UniProt Q8L4P8); assay: two-hybrid
[12] = biological target: KRP1, yeast two-hybrid bait (rice (Oryza sativa)) (UniProt Q6Z6G5); assay: two-hybrid
[13] = biological target: T4, KRP5-nEYFP (rice (Oryza sativa)); assay: split reporter
[14] = biological target: CDKB1;1, yeast construct (rice (Oryza sativa)), Q8L4P8; assay: two-hybrid; conditions: remark: other sources report otherwise

Binder | binding [3] | binding [7] | binding [8] | binding [9] | binding [10] | binding [11] | other results
B1 | binds | – | – | – | – | – | binding [1]: binds; binding [2]: binds; binding [4]: no binding; binding [5]: binds; binding [6]: no binding
B2 | – | binds | binds | binds | binds | binds | –
B3 | binds | no binding | binds | binds | binds | binds | binding [1]: binds
B4 | binds | no binding | no binding | binds | binds | binds | binding [12]: no binding; binding [5]: no binding
B5 | – | no binding | no binding | binds | binds | no binding | –
B6 | – | no binding | no binding | binds | – | – | –
B7 | – | – | – | – | – | – | binding [13]: binds
B8 | – | – | – | – | – | – | binding [14]: no binding
